These are yes or no findings as the source states them, for the method shown. Where a sequence is shown, tags or fusion partners need not be part of it.
Target: T1, Rpn1^(391 to 642) fused to Gal4-DBD (S. cerevisiae) (UniProt P38764)
T1 sequence: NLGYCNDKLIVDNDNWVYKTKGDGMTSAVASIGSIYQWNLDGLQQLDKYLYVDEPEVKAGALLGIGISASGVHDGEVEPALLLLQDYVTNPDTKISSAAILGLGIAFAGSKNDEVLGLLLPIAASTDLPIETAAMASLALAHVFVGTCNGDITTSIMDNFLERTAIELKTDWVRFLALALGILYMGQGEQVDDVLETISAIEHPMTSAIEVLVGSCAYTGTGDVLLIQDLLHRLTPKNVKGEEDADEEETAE
Experiment: two-hybrid; reporter strain MaV203; Gal4-DBD fused to Rpn1 391-642 and Gal4-AD fusions; interaction indicated by growth on 100 mM 3-AT and lack of growth on 0.2% 5FOA

Substance: Gal4-AD fused to Ddi1ΔUBL (S. cerevisiae) (domain or fragment)
- binding: no binding
